No constants are given. Whether binding was seen depends on the method and setting. In cells and extracts the contact can be indirect. Some results given as binding are weak or reduced against the parent protein; the word gives no strength. Values belong to the molecule of their own block, whether it stands above or below them.
Experiments:
[1] = biological target: caveolin-1 (human (endogenous in HUVECs)) (UniProt Q03135); experiment: co-immunoprecipitation from HUVEC lysate: anti-caveolin-1 pull-down, anti-VEGFR2 immunoblot
[2] = biological target: c-Abl (human (endogenous in HUVECs)) (UniProt P00519); experiment: co-immunoprecipitation from HUVEC lysate: anti-prdx1 pull-down, anti-c-Abl immunoblot (VEGF model)
[3] = biological target: c-Abl (human (endogenous in HUVECs)) (UniProt P00519); experiment: co-immunoprecipitation from HUVEC lysate: anti-prdx1 pull-down, anti-c-Abl immunoblot (H2O2 model)
[4] = biological target: c-Abl (human (endogenous in HUVECs)) (UniProt P00519); experiment: co-immunoprecipitation from HUVEC lysate: anti-prdx1 pull-down, anti-c-Abl immunoblot (VEGF model), figure legend
[5] = biological target: c-Abl (human (endogenous in HUVECs)) (UniProt P00519); experiment: co-immunoprecipitation from HUVEC lysate: anti-prdx1 pull-down, anti-c-Abl immunoblot (H2O2 model), figure legend

Chains of the proteins cited; added tags and fusions are not shown. Residues count along the entry.
UniProt Q03135, residues 2-178: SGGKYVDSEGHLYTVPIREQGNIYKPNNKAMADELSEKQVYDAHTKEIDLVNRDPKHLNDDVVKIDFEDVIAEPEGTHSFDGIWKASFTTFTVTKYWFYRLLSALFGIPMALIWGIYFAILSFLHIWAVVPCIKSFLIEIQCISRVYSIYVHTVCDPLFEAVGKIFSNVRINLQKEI
UniProt P00519: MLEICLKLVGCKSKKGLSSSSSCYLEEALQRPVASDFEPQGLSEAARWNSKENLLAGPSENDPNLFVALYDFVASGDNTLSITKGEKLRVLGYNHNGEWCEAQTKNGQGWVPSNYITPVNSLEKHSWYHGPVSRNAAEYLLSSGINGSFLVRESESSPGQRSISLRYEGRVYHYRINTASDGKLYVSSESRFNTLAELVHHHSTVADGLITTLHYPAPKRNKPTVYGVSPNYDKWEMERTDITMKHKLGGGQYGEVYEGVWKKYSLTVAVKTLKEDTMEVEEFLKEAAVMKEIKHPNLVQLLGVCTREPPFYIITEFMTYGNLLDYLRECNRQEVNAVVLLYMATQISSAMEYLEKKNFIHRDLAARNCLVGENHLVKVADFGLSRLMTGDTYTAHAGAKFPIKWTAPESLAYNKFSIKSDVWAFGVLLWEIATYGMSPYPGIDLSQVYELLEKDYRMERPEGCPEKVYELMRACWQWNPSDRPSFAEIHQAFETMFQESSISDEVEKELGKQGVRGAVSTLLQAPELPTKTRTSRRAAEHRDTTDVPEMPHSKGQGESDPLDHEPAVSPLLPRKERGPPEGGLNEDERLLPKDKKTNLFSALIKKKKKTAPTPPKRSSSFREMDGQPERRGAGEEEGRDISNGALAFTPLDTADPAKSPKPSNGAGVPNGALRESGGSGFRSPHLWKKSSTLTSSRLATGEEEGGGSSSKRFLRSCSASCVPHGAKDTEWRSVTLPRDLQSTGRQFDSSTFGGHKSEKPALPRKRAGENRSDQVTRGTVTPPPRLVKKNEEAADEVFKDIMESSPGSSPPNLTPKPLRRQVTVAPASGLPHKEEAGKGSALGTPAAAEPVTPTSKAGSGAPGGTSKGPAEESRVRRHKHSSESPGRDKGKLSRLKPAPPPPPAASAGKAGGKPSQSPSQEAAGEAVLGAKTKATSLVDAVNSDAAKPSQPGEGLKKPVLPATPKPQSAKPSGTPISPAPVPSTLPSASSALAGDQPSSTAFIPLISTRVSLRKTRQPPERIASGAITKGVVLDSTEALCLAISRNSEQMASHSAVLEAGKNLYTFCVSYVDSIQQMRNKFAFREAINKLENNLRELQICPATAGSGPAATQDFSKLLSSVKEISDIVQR
UniProt P35968, residues 20-1356: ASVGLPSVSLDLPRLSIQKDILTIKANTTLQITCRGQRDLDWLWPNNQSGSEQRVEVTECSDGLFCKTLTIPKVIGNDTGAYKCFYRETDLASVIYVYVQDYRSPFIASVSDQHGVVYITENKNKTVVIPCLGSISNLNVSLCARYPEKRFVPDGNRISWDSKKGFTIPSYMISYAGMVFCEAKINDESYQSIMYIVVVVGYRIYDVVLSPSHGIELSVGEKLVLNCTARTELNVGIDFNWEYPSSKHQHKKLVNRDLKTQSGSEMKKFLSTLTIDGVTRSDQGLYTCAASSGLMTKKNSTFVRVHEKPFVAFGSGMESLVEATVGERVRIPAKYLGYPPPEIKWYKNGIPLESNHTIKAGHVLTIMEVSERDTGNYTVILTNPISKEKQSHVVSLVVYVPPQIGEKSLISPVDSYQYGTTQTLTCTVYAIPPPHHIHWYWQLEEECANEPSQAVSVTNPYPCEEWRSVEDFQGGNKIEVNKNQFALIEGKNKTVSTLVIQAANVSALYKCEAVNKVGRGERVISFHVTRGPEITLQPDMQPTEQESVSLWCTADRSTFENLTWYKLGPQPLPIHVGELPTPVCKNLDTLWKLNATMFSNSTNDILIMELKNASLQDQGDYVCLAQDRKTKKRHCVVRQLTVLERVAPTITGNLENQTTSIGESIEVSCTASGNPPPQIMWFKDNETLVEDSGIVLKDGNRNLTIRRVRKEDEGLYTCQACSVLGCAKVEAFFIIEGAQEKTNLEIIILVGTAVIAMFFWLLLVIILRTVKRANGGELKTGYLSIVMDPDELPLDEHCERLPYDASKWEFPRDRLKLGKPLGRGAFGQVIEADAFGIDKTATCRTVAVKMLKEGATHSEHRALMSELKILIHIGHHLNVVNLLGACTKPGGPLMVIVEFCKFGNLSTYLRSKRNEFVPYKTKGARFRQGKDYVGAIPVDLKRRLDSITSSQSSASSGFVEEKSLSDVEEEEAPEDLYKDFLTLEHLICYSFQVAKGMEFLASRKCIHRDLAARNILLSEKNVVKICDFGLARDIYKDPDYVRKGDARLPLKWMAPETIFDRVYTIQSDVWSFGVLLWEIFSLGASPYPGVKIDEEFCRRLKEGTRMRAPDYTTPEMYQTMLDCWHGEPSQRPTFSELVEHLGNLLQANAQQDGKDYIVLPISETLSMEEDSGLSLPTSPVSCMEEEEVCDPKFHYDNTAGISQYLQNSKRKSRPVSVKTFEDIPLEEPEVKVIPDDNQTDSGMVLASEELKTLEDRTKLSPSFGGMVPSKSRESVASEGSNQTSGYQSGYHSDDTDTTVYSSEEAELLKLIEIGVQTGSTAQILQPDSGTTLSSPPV

binding [1]: binds
Molecule: VEGF receptor-2 (VEGFR2) (from UniProt P35968 20-1356)

binding [2]: binds | binding [3]: binds | binding [4]: binds | binding [5]: binds
B1: Peroxiredoxin I (Prdx1) (enzyme, human (endogenous in HUVECs), UniProt Q06830 2-199, looked up)
chain: SSGNAKIGHPAPNFKATAVMPDGQFKDISLSDYKGKYVVFFFYPLDFTFVCPTEIIAFSDRAEEFKKLNCQVIGASVDSHFCHLAWVNTPKKQGGLGPMNIPLVSDPKRTIAQDYGVLKADEGISFRGLFIIDDKGILRQITVNDLPVGRSVDETLRLVQAFQFTDKHGEVCPAGWKPGSDTIKPDVQKSKEYFSKQK
